Data: publication PMC10962057
These are yes or no findings as the source states them, for the method shown. Binding seen in cells or lysates may run through a third protein. Some binding calls cover weakened binding; strength is not graded here.

Target: T1, Thioredoxin-interacting protein (TXNIP) (human (endogenous in IMR90)) (UniProt Q9H3M7)
T1 sequence: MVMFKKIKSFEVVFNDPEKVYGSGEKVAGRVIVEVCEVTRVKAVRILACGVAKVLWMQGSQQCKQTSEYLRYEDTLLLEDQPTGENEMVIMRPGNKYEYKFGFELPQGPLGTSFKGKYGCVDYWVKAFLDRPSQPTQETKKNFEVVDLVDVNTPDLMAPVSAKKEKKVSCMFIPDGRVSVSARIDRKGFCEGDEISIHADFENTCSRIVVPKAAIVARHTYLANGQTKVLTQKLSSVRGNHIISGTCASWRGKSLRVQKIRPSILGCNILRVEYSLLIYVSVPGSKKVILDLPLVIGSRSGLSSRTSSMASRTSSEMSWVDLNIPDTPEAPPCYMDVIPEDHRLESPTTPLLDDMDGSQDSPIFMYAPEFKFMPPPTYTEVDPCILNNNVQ
Assay: co-IP; IMR90 cell lysates immunoprecipitated with TXNIP antibody (rabbit IgG as control), immunoblotting with USP13 antibody

B1: ubiquitin-specific protease-13 (USP13) (enzyme, UniProt Q92995 1-863)
chain: MQRRGALFGMPGGSGGRKMAAGDIGELLVPHMPTIRVPRSGDRVYKNECAFSYDSPNSEGGLYVCMNTFLAFGREHVERHFRKTGQSVYMHLKRHVREKVRGASGGALPKRRNSKIFLDLDTDDDLNSDDYEYEDEAKLVIFPDHYEIALPNIEELPALVTIACDAVLSSKSPYRKQDPDTWENELPVSKYANNLTQLDNGVRIPPSGWKCARCDLRENLWLNLTDGSVLCGKWFFDSSGGNGHALEHYRDMGYPLAVKLGTITPDGADVYSFQEEEPVLDPHLAKHLAHFGIDMLHMHGTENGLQDNDIKLRVSEWEVIQESGTKLKPMYGPGYTGLKNLGNSCYLSSVMQAIFSIPEFQRAYVGNLPRIFDYSPLDPTQDFNTQMTKLGHGLLSGQYSKPPVKSELIEQVMKEEHKPQQNGISPRMFKAFVSKSHPEFSSNRQQDAQEFFLHLVNLVERNRIGSENPSDVFRFLVEERIQCCQTRKVRYTERVDYLMQLPVAMEAATNKDELIAYELTRREAEANRRPLPELVRAKIPFSACLQAFSEPENVDDFWSSALQAKSAGVKTSRFASFPEYLVVQIKKFTFGLDWVPKKFDVSIDMPDLLDINHLRARGLQPGEEELPDISPPIVIPDDSKDRLMNQLIDPSDIDESSVMQLAEMGFPLEACRKAVYFTGNMGAEVAFNWIIVHMEEPDFAEPLTMPGYGGAASAGASVFGASGLDNQPPEEIVAIITSMGFQRNQAIQALRATNNNLERALDWIFSHPEFEEDSDFVIEMENNANANIISEAKPEGPRVKDGSGTYELFAFISHMGTSTMSGHYICHIKKEGRWVIYNDHKVCASERPPKDLGYMYFYRRIPS
binding: binds
